Laboratory results as given in US7655689B2, “Fused heterocyclic succinimide compounds and analogs thereof, modulators of nuclear hormone receptor function” (Bristol-Myers Squibb Company, priority 2000, dated 2010).
At least one structure is not confirmed: it was looked up by name or label, or the drawing left a doubt.

Test system: Dunning R3327H prostate tumor
Test: Dunning prostate tumor model
Format: in vivo, Copenhagen rats
Conditions: 20 mg/kg orally, after 14 weeks of treatment

| Structure (SMILES) | reduction in tumor volumes compared to control |
| --- | --- |
| CC(C)C(=O)Nc1ccc([N+](=O)[O-])c(C(F)(F)F)c1 [flutamide, Flutamide] | 40% |
| CC(O)(CS(=O)(=O)c1ccc(F)cc1)C(=O)Nc1ccc(C#N)c(C(F)(F)F)c1 (centres unmarked) [bicalutamide] | 40% |
